In PMC9571070, “Three-Fluorophore FRET Enables the Analysis of Ternary Protein Association in Living Plant Cells” (Plants, 2022):
No constants are given. Whether binding was seen depends on the method and setting. In cells and extracts the contact can be indirect. Some binding calls cover weakened binding; strength is not graded here. For part of these data: Sequences can lack the tags named with a protein.

By UniProt entry, the sequences of proteins in these tests, tags left out. Residues count along the entry.
UniProt O22476, residues 24-1196: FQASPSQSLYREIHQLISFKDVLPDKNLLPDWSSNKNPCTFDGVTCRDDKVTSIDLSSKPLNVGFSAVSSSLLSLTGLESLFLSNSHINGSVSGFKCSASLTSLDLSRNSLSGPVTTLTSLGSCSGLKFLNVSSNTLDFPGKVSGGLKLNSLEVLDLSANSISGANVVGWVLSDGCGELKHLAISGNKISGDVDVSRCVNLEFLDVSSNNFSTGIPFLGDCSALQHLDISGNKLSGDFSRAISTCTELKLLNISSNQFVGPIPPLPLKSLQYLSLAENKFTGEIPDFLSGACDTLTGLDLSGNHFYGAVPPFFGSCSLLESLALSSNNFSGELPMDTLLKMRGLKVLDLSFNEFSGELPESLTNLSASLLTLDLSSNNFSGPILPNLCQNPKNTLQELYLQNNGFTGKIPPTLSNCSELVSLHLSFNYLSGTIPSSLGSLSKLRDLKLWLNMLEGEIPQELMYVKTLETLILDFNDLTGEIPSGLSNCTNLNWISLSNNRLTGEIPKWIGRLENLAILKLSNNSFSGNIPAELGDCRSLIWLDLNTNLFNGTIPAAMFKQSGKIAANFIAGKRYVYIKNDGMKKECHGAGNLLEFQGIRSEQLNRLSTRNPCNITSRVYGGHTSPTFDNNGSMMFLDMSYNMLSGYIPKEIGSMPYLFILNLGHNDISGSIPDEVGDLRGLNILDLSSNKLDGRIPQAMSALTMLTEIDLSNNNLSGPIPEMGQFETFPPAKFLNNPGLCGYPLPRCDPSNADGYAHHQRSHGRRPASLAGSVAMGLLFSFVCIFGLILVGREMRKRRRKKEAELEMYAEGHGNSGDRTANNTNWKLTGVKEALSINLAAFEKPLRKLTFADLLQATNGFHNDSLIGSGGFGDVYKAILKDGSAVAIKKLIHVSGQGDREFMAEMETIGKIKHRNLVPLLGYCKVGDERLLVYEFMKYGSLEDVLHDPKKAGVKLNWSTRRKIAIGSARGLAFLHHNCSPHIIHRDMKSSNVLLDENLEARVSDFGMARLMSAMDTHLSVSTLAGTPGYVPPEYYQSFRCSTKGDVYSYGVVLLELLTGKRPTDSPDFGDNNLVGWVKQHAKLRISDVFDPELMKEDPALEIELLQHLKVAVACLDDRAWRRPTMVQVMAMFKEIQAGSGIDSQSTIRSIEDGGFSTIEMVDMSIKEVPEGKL
UniProt Q9FL28, residues 24-1173: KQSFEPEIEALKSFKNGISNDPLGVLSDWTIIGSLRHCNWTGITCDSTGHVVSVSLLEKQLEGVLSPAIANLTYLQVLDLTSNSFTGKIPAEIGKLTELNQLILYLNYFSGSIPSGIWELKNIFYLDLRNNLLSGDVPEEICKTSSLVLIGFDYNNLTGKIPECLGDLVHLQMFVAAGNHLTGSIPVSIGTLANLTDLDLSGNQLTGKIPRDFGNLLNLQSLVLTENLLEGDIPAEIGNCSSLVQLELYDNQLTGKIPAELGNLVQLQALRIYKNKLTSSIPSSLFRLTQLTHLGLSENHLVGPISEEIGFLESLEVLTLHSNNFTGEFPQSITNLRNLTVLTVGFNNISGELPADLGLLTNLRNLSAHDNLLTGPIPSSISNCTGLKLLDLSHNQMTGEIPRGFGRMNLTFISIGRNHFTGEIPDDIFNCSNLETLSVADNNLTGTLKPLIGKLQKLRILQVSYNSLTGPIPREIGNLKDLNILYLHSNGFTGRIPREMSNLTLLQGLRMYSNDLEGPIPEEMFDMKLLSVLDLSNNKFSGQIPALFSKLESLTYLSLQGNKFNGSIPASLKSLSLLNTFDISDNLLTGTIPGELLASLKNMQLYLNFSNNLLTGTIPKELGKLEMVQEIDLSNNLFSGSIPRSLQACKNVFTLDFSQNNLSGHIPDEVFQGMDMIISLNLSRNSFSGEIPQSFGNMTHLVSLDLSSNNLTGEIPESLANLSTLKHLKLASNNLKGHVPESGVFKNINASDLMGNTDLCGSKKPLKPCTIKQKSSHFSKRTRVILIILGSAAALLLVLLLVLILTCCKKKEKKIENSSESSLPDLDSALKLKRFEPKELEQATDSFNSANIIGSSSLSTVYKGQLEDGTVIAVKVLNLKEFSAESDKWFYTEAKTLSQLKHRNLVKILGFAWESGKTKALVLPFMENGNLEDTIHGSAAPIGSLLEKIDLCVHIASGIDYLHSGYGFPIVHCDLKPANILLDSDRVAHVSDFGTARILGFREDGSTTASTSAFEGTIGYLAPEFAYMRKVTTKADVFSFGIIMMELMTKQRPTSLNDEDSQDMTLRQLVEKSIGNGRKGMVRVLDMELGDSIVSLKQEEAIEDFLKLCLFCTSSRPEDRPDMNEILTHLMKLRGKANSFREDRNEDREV

T1: Receptor-Like Protein 44 fused to monomeric Turquoise 2 (RLP44-mTRQ2) (UniProt Q9M2Y3)
T1 sequence: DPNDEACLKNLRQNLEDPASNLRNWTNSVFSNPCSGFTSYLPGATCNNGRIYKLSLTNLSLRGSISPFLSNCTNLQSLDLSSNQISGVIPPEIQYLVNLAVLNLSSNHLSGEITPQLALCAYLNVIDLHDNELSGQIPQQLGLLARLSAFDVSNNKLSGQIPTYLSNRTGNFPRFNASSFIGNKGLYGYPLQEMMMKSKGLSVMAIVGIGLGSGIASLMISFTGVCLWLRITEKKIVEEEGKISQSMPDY

T2: BRI1 Associated Kinase 1 fused to monomeric Venus (BAK1-mVEN) (UniProt Q94F62)
T2 sequence: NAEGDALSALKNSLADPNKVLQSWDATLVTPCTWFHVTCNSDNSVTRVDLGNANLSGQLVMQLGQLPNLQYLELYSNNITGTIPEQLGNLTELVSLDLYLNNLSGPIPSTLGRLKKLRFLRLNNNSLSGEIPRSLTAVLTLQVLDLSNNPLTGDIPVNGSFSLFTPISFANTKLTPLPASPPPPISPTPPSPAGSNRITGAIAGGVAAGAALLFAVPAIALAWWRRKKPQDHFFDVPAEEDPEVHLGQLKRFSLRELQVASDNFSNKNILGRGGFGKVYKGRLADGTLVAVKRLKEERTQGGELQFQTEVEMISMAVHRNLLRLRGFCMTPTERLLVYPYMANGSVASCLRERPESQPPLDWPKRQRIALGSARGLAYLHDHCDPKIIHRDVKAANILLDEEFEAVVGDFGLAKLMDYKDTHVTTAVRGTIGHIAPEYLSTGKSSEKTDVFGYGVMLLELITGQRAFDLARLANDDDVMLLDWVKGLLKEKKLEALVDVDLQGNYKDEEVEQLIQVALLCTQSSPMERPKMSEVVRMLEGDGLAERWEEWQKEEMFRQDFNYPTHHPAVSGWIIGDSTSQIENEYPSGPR


How the values were obtained:
[1] = biological target: T1, Receptor-Like Protein 44 fused to monomeric Turquoise 2 (RLP44-mTRQ2); test: FRET or BRET; three-fluorophore intensity-based spectral FRET (excitation 458 nm), RLP44-mTRQ2 co-expressed with one mVEN and one mRFP fusion protein, plasma membrane of living N. benthamiana epidermal leaf cells
[2] = biological target: T1, Receptor-Like Protein 44 fused to monomeric Turquoise 2 (RLP44-mTRQ2); test: FRET or BRET; three-fluorophore FRET-FLIM, fluorescence lifetime of the donor RLP44-mTRQ2 co-expressed with one mVEN and one mRFP fusion protein, living N. benthamiana epidermal leaf cells; also with 10 nM brassinolide (no alteration)
[3] = biological target: T1, Receptor-Like Protein 44 fused to monomeric Turquoise 2 (RLP44-mTRQ2); test: FRET or BRET; intensity-based spectral FRET (lambda-stacks, excitation 458 nm), two fusion proteins co-expressed, plasma membrane of living N. benthamiana epidermal leaf cells; donor RLP44-mTRQ2, acceptor mVEN or mRFP fusion; corrected for donor-to-acceptor ratios
[4] = biological target: T2, BRI1 Associated Kinase 1 fused to monomeric Venus (BAK1-mVEN); test: FRET or BRET; three-fluorophore intensity-based spectral FRET (excitation 458 nm), RLP44-mTRQ2 co-expressed with one mVEN and one mRFP fusion protein, plasma membrane of living N. benthamiana epidermal leaf cells
[5] = biological target: T1, Receptor-Like Protein 44 fused to monomeric Turquoise 2 (RLP44-mTRQ2); test: FRET or BRET; FRET-FLIM, fluorescence lifetime of the donor RLP44-mTRQ2 (440 nm pulsed laser, TCSPC), two fusion proteins co-expressed, plasma membrane of living N. benthamiana epidermal leaf cells
[6] = biological target: Brassinosteroid Insensitive 1 fused to monomeric Venus (BRI1-mVEN) (UniProt O22476); test: FRET or BRET; three-fluorophore intensity-based spectral FRET (excitation 458 nm), RLP44-mTRQ2 co-expressed with one mVEN and one mRFP fusion protein, plasma membrane of living N. benthamiana epidermal leaf cells
[7] = biological target: Brassinosteroid Insensitive 1 fused to monomeric Venus (BRI1-mVEN) (UniProt O22476); test: FRET or BRET; three-fluorophore FRET-FLIM, fluorescence lifetime of the donor RLP44-mTRQ2 co-expressed with one mVEN and one mRFP fusion protein, living N. benthamiana epidermal leaf cells; also with 10 nM brassinolide (no alteration)
[8] = biological target: T1, Receptor-Like Protein 44 fused to monomeric Turquoise 2 (RLP44-mTRQ2); test: FRET or BRET; intensity-based spectral FRET (lambda-stacks, excitation 458 nm), two fusion proteins co-expressed, plasma membrane of living N. benthamiana epidermal leaf cells; donor RLP44-mTRQ2, acceptor mVEN or mRFP fusion; corrected for donor-to-acceptor ratios; remark: listed apart in the source

| Molecule | binding [1] | binding [2] | binding [3] | binding [4] | binding [5] | binding [6] | binding [7] | binding [8] |
| --- | --- | --- | --- | --- | --- | --- | --- | --- |
| Brassinosteroid Insensitive 1 fused to monomeric red fluorescence protein 1 (BRI1-mRFP) (from UniProt O22476 24-1196) (receptor) | binds |  | binds | binds |  |  |  |  |
| Flagellin Sensing 2 fused to monomeric red fluorescence protein 1 (FLS2-mRFP) (from UniProt Q9FL28 24-1173) (receptor) | no binding | no binding | no binding |  | no binding | no binding | no binding |  |

Now from value to molecule:

| binding [1] | binding [2] | binding [3] | binding [4] | binding [5] | binding [6] | binding [7] | binding [8] | Molecule |
| --- | --- | --- | --- | --- | --- | --- | --- | --- |
| binds | binds | binds |  |  |  |  |  | Brassinosteroid Insensitive 1 fused to monomeric Venus (BRI1-mVEN) (from UniProt O22476 24-1196) (receptor) |
|  |  | no binding |  | no binding |  |  |  | Flagellin Sensing 2 fused to monomeric Venus (FLS2-mVEN) (from UniProt Q9FL28 24-1173) (receptor) |
| binds |  |  |  |  |  |  |  | BRI1 Associated Kinase 1 fused to monomeric Venus (BAK1-mVEN) (receptor, UniProt Q94F62 26-615) NAEGDALSALKNSLADPNKVLQSWDATLVTPCTWFHVTCNSDNSVTRVDLGNANLSGQLVMQLGQLPNLQYLELYSNNITGTIPEQLGNLTELVSLDLYLNNLSGPIPSTLGRLKKLRFLRLNNNSLSGEIPRSLTAVLTLQVLDLSNNPLTGDIPVNGSFSLFTPISFANTKLTPLPASPPPPISPTPPSPAGSNRITGAIAGGVAAGAALLFAVPAIALAWWRRKKPQDHFFDVPAEEDPEVHLGQLKRFSLRELQVASDNFSNKNILGRGGFGKVYKGRLADGTLVAVKRLKEERTQGGELQFQTEVEMISMAVHRNLLRLRGFCMTPTERLLVYPYMANGSVASCLRERPESQPPLDWPKRQRIALGSARGLAYLHDHCDPKIIHRDVKAANILLDEEFEAVVGDFGLAKLMDYKDTHVTTAVRGTIGHIAPEYLSTGKSSEKTDVFGYGVMLLELITGQRAFDLARLANDDDVMLLDWVKGLLKEKKLEALVDVDLQGNYKDEEVEQLIQVALLCTQSSPMERPKMSEVVRMLEGDGLAERWEEWQKEEMFRQDFNYPTHHPAVSGWIIGDSTSQIENEYPSGPR |
| binds |  |  |  |  | binds |  | binds | BRI1 Associated Kinase 1 fused to monomeric red fluorescence protein 1 (BAK1-mRFP) (receptor, UniProt Q94F62 26-615, looked up, BRI1 Associated Kinase 1 (BAK1), co-receptor kinase; also called BAK1-RFP; source: N. benthamiana epidermal leaf cells, transiently transformed, in living cells; not shown: mRFP, C-terminal, kept) NAEGDALSALKNSLADPNKVLQSWDATLVTPCTWFHVTCNSDNSVTRVDLGNANLSGQLVMQLGQLPNLQYLELYSNNITGTIPEQLGNLTELVSLDLYLNNLSGPIPSTLGRLKKLRFLRLNNNSLSGEIPRSLTAVLTLQVLDLSNNPLTGDIPVNGSFSLFTPISFANTKLTPLPASPPPPISPTPPSPAGSNRITGAIAGGVAAGAALLFAVPAIALAWWRRKKPQDHFFDVPAEEDPEVHLGQLKRFSLRELQVASDNFSNKNILGRGGFGKVYKGRLADGTLVAVKRLKEERTQGGELQFQTEVEMISMAVHRNLLRLRGFCMTPTERLLVYPYMANGSVASCLRERPESQPPLDWPKRQRIALGSARGLAYLHDHCDPKIIHRDVKAANILLDEEFEAVVGDFGLAKLMDYKDTHVTTAVRGTIGHIAPEYLSTGKSSEKTDVFGYGVMLLELITGQRAFDLARLANDDDVMLLDWVKGLLKEKKLEALVDVDLQGNYKDEEVEQLIQVALLCTQSSPMERPKMSEVVRMLEGDGLAERWEEWQKEEMFRQDFNYPTHHPAVSGWIIGDSTSQIENEYPSGPR |
